Assay results: US20080131423A1 (US Dept. of Health and Human Services, published 2008)
No constants are given. Whether binding was seen depends on the method and setting. Some binding calls cover weakened binding; strength is not graded here.

What was measured:
[1] = target: T1, human TREM-like transcript-1 (TLT-1) (human, UniProt Q86YW5 16-311); assay: flow cytometry, purified scFv on resting human platelets (low surface TLT-1)
T1 construct: whole, on cells; bands of 35 and 25 kDa; also called hTLT-1; TLT-1 on (HEK)293T transfected cells
T1 sequence (looked up): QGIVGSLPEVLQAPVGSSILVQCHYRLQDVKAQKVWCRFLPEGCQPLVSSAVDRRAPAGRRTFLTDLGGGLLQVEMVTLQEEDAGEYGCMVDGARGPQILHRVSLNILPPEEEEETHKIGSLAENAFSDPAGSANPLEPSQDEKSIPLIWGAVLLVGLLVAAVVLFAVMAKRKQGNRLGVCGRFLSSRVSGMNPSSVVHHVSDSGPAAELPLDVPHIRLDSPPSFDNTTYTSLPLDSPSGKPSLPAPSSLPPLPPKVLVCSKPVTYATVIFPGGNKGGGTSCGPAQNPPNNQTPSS

[2] = target: T1, human TREM-like transcript-1 (TLT-1); assay: flow cytometry, purified scFv on TLT-1 transfected cells
Experimental: For flow cytometric analysis with TLT-1-transfected cells, phage-containing supernatants were prepared from individual colonies as previously described (14). (HEK)293T-TLT-1 transfected cells (2×10⁵ cells) were washed with PBS/1% BSA and incubated with phages (2×10¹⁰ TU) or purified scFv (1 μg/ml). After 1 hr of incubation at 4° C., cells were washed twice with PBS/1% BSA. Phage binding was detected by incubation with mouse anti-M13 monoclonal antibody (Amersham Bioscience, Piscataway, N.J.), followed by incubation with phycoerithrin (PE)-conjugated anti-mouse antibody (Jackson Immunoresearch, West Grove, Pa.). To analyze scFv binding to human platelets, platelets were incubated with 1 μg of purified scFv for 1 hour at 4° C. and washed three times with PBS containing 0.5% sodium azide and 0.5% BSA. ScFv binding was detected using a FITC-conjugated anti-c-myc antibody (Sigma, St Louis, Mo.). TLT-1 expression was detected with a commercial anti-human TLT-1 pAb (R&D Systems, MN) as previously described (10).

[3] = target: T1, human TREM-like transcript-1 (TLT-1); assay: flow cytometry, purified scFv on thrombin-activated human platelets (FIG. 4A)

Measured: binding

B1: scFv B8 (scFv)
scFv: MAEVQLLESGGGLVQPGGSLRLSCAASGFTFSSYAMSWVRQAPGKGLEWVSNITASGYATAYADSVKGRFTISRDNSKNTLYLQMNSLRAEDTAVYYCAKTTATFDYWGQGTLVTVSSGGGGSGGGGSGGGGSTDIQMTQSPSSLSASVGDRVTITCRASQSISSYLNWYQQKPGKAPKLLIYDASNLQSGVPSRFSGSGSGTDFTLTISSLQPEDFATYYCQQDTASPSTFGQGTKVEIKRAAAHHHHHHGAAEQKLISEEDLNGAA
notes: Human scFv from the Tomlinson I phage library; Soluble form purified on Protein L; also called GenBank DQ375452
binds: all assays above
